No constants are given. Whether binding was seen depends on the method and setting. Some entries that bind do so weakly or less than the wild type.
How the values were obtained:
[1] = target: antigen of scFv Ab1 on PC3-PIP (positive) cells (UniProt Q04609); assay: flow cytometry on PC3-PIP cells, scFv at 10 µg/ml, anti-His detection
[2] = target: antigen of scFv Ab1 on PC3-PIP (positive) cells (UniProt Q04609); assay: ELISA on fixed PC3-PIP cells, scFv 2.5 to 0.0025 µg/ml, anti-His detection
[3] = target: antigen of scFv Ab1 on PC3-PIP (positive) cells (UniProt Q04609); assay: ELISA on fixed PC3-PIP (positive) cells, anti-His tag and HRP anti-mouse IgG
[4] = target: antigen of scFv Ab1 on PC3-PIP (positive) cells (UniProt Q04609); assay: flow cytometry on PC3-PIP (positive) cells, scFv at 10 µg/ml, anti-His tag and anti-mouse IgG-Alexa488

The chains behind the UniProt entries cited, without tags or fusion partners.
UniProt Q04609: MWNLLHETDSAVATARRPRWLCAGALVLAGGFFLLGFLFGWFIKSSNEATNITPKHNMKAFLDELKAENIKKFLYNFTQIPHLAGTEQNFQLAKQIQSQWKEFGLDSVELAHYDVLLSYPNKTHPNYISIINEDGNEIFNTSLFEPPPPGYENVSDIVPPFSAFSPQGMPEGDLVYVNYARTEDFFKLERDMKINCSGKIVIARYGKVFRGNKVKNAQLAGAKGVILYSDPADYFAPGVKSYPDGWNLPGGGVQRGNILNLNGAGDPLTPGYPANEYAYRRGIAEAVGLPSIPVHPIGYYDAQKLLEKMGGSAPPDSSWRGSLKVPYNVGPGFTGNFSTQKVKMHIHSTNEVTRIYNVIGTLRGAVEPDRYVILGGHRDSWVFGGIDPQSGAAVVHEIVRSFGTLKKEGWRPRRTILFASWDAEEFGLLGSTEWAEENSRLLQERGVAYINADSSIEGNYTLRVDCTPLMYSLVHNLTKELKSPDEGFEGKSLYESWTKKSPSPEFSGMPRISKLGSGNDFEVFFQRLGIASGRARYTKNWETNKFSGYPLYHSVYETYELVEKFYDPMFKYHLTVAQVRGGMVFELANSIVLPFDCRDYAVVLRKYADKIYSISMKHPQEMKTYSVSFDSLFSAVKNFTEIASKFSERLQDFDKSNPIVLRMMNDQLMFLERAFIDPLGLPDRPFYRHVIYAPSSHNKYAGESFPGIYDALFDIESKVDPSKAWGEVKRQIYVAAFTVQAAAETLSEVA

Measured: binding

B1: scFv Ab1 RREF (scFv, not shown: small tags and cut ends)
scFv: EVKLQESGPGLVKPSQSLSLTCSVTGYSITSGYYWNWIRQFPGNKLEWMGSISFDGNNNYNPSLRNRISITRDTSKNQFFLKLNSVTTEDTATYYCAREGDYYGSSFFTYWGQGTLVTVSSGGGGSGGGGSGGGGSALDIVMTQSPASLSASVGETVTLTCGASENIYGALNWYQRKQGKSPQLLIYGATNLADGMSSRFSGSGSGRQYSLKISSLHPDDVATYYCQNVFRTYTFGGGTKLEIKRAAAHHHHHH
binds: all assays above
